# Results taken from patent US9415007B2, “Cyanocobalamin low viscosity aqueous formulations for intranasal delivery” (PAR PHARMACEUTICAL INC., priority 2003, dated 2016).
# The name of at least one read-out is uncertain.
# Assay: Uptake of Vitamin B12 into cerebrospinal fluid after intranasal and intramuscular administration
# Format: in vivo, human
# Settings: intranasal administration
# Description: We conducted a non-blinded, single dose, parallel group study to compare the uptake of Vitamin B12 into the cerebrospinal fluid (CSF) after intranasal and intramuscular administration in healthy male and non-pregnant female volunteers. This study compared CSF levels to plasma levels produced by both formulations.
# Thirty-six healthy male and non-pregnant female subjects, age 18 and over, were enrolled in the study. Eighteen subjects received a single intranasal dose of 500 mcg delivered as a 0.1 mL spray and eighteen subjects received a single intramuscular dose of 100 mcg delivered intramuscularly. Each subject visited the clinical site three times in a one-month period. These visits consisted of a screening visit, one dosing visit and a final visit.
# After each dosing, each subject underwent lumbar puncture only once, with the retrieval of a total 4.0 mL of CSF (4 tubes, 1.0 mL per tube).
# In addition to the above, on the day of dosing 7 mL blood samples were drawn before dosing and post dosing at 5, 10, 15 and 20 minutes, and at 0.5, 1, 1½, 2, 3, 4, 6, and 8 hours post-dose (prior to discharge).
# The cerebrospinal fluid was evaluated for total Vitamin B12 content. […]
# The levels of vitamin B12 were determined in both the CSF and blood serum using Vitamin B12 concentrations in the CSF will be analyzed for Qualitative determination of Vitamin B12 using a validated TOSOH Nex. […]
substance,measurement,value
"5,6-dimethyl-benzimidazolyl cyanocobamide [vitamin B12]",bioavailability in the blood serum relative to intramuscular injection,7-12%
